These results are taken from PMC12373974.

The test system of the data set is MBP-BnaA10.SEP (Brassica napus). Kind of data set: EMSA. To be noted: 25°C 30 min binding; 6% native PAGE in 0.5x TBE, 60 V, 4°C; binding buffer not stated; recombinant protein; protein details: MBP (pMAL-C5X); label: 5'-biotin. (In general: Mobility shift assays separate free from complexed probe on a gel.)

For at least one entry, the source does not settle the construct or the ends of the probe.

In the case of “TTTCATTAACCTTTGGGTTG (double strand) [GT1-motif probe of pBnaA10/C09.TFL1DTI-100]”, the binding result is reported as “binds”.
